{"sequences": {"note": "Protein sequences, listed by entry. Tags and fused reporters are not part of them.", "UniProt Q0JBA9, entry or part of it": "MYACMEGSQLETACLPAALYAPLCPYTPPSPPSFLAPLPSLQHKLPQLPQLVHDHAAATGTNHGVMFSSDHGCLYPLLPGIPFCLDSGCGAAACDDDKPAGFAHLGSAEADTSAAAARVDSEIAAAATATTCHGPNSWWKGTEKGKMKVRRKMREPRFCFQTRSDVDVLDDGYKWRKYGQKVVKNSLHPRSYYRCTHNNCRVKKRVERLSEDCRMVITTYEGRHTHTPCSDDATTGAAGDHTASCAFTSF"}, "source": "paper PMC7819943", "about": "“Rice protein-binding microarrays: a tool to detect cis-acting elements near promoter regions in rice”", "note": "This is one part of the list.", "data": [{"target": "OsWRKY34 (Oryza sativa, UniProt Q0JBA9 1-250)", "test": "protein-binding microarray (RPBM); PBS, 2% BSA, 51.3 ng/ul salmon testes DNA, 50 uM zinc acetate, 200 nM TF, 25 C, 1 h; high values mean tight binding", "conditions": "protein: recombinant; tags: N-terminal polyhistidine and DsRed monomer fusion (pET32a); label: CyDye5-dUTP incorporated in the synthesized complementary strand; 3' TTTTT single-stranded linker to array surface; dsDNA, one strand shown", "method_in_brief": "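A custom Agilent array was converted to double-stranded form by primer extension with Cy5-dUTP and blocked with 2% BSA. Protein at 200 nM in PBS with 2% BSA, salmon testes DNA and 50 µM zinc acetate was applied for 1 h at 25 °C, followed by washing. The proteins were polyhistidine–DsRed N-terminal fusions of transcription factors, expressed in E. coli BL21-CodonPlus and Ni–NTA-purified. The binding signal is per-feature fluorescence intensity (arbitrary units) from an Axon 4000B scanner.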", "values": [{"sequence": "CAAAAGCTTTCCAACTTGCCAGCCATTGCCCTCACCGTCTCGGAGTCACCTAGTGCAG", "binding signal": "8310 fluorescence intensity (a.u.)"}, {"sequence": "TTGTTCATGAGTGTCGTGTTTAAATACTCCCTACGGTCACCGGAGTCACCTAGTGCAG", "binding signal": "9040 fluorescence intensity (a.u.)"}, {"sequence": "CCAATTCCTGCTAAAATTTTATTACCTTTTTGGACGAAAGCGGAGTCACCTAGTGCAG", "binding signal": "8070 fluorescence intensity (a.u.)"}, {"sequence": "ATTTGTCGGCTTAGCCATCGTTGCATCAAGAACTGGTGATCGGAGTCACCTAGTGCAG", "binding signal": "8070 fluorescence intensity (a.u.)"}, {"sequence": "GATCTCTCTCTCATCAGGACCCCGGCCTTAAGTTGTTTCTCGGAGTCACCTAGTGCAG", "binding signal": "9120 fluorescence intensity (a.u.)"}, {"sequence": "GCCGCATTCACGCTGACCCGACGCACCGCCGCCGCGGCGCCGGAGTCACCTAGTGCAG", "binding signal": "8060 fluorescence intensity (a.u.)"}, {"sequence": "AGGTGGGGAGCGGCGGACTCGCGGTTGGGTTTGTGTGGTTCGGAGTCACCTAGTGCAG", "binding signal": "14200 fluorescence intensity (a.u.)"}, {"sequence": "CACCCGCACCCGCCCGCACGGCCGCGCCCGCGTCACCACCCGGAGTCACCTAGTGCAG", "binding signal": "8090 fluorescence intensity (a.u.)"}, {"sequence": "TAATTGCCTATTGGCTCGTTCTGGTTAAATTCATCGTTTCCGGAGTCACCTAGTGCAG", "binding signal": "10700 fluorescence intensity (a.u.)"}, {"sequence": "AATTATGTATTGGCTAGTCAAGTTAAGCAGGTCTTTTATGCGGAGTCACCTAGTGCAG", "binding signal": "8220 fluorescence intensity (a.u.)"}, {"sequence": "ATTGTGTTATGCCACACTTTCTTAACTTTGGGACCCACATCGGAGTCACCTAGTGCAG", "binding signal": "8970 fluorescence intensity (a.u.)"}, {"sequence": "GAACACGATGACATCGGATCGGGTCGGTTTCTCTCTTGCTCGGAGTCACCTAGTGCAG", "binding signal": "9010 fluorescence intensity (a.u.)"}, {"sequence": "TTTATTCGTTACTCCCTCCGTTTTATAATATAAATGATATCGGAGTCACCTAGTGCAG", "binding signal": "9940 fluorescence intensity (a.u.)"}, {"sequence": "GGCCCACTCAACCACGTTTCAGTTACTCCTTAATGACCCACGGAGTCACCTAGTGCAG", "binding signal": "9060 fluorescence intensity (a.u.)"}, {"sequence": "TTTACTGAGATCAACAATAACCTATATGTATTCTTTTTAACGGAGTCACCTAGTGCAG", "binding signal": "8920 fluorescence intensity (a.u.)"}, {"sequence": "ATCTCTACCAAAGTGTCACATTTGTCTCGTAGGATAACTTCGGAGTCACCTAGTGCAG", "binding signal": "8410 fluorescence intensity (a.u.)"}, {"sequence": "TTTTCGTAAAGTTCCGCGCACTAACCCGCGCCCCAACCCTCGGAGTCACCTAGTGCAG", "binding signal": "8750 fluorescence intensity (a.u.)"}, {"sequence": "TTTTGTCTGCTCTTCAATTGCTTTCATATGTATAAACAAGCGGAGTCACCTAGTGCAG", "binding signal": "8940 fluorescence intensity (a.u.)"}, {"sequence": "TGTTTTCTTGTTCATGTCTGAATTCCGATTTTCTCCTCCTCGGAGTCACCTAGTGCAG", "binding signal": "14200 fluorescence intensity (a.u.)"}, {"sequence": "TGCTGATGTTTTTTTTTGTTTGACTTGTAACTTGTAAGATCGGAGTCACCTAGTGCAG", "binding signal": "9130 fluorescence intensity (a.u.)"}, {"sequence": "TATTGGAACTATTACGACCACATGCTCTCTTCCTACTCTCCGGAGTCACCTAGTGCAG", "binding signal": "9770 fluorescence intensity (a.u.)"}, {"sequence": "CCCATGGCACCATCCCTGTTTATGATTTTTTTTAAAAAAACGGAGTCACCTAGTGCAG", "binding signal": "9730 fluorescence intensity (a.u.)"}, {"sequence": "GCACGCACGCACAAGATACAGTATATCTCACCGTCAGTTACGGAGTCACCTAGTGCAG", "binding signal": "9520 fluorescence intensity (a.u.)"}, {"sequence": "TTATCCTTAAACTTAAACTTTGCACATGGCCCCTTAAACTCGGAGTCACCTAGTGCAG", "binding signal": "8040 fluorescence intensity (a.u.)"}, {"sequence": "TCACTGAATTATTGTCGTGCATTATTTTATCCACTTCCTACGGAGTCACCTAGTGCAG", "binding signal": "9090 fluorescence intensity (a.u.)"}, {"sequence": "TCAGGTTGTGATTTTGGTCATGGGCCTTTGCGATTAGCCACGGAGTCACCTAGTGCAG", "binding signal": "8190 fluorescence intensity (a.u.)"}, {"sequence": "TGTTGTGGTGATGTCTTGCGTAATTTTTGTAGATCCACATCGGAGTCACCTAGTGCAG", "binding signal": "9740 fluorescence intensity (a.u.)"}, {"sequence": "ACGAATAATAGAGACCAGCATTTGTACATTCTATATTATACGGAGTCACCTAGTGCAG", "binding signal": "8150 fluorescence intensity (a.u.)"}, {"sequence": "TTGAACATGATTTGTGGTGGGTGGAGTGATTTATGTCATTCGGAGTCACCTAGTGCAG", "binding signal": "9940 fluorescence intensity (a.u.)"}, {"sequence": "CCTCCTCACCGGCAATTAATGCCGCCAACTACCAGATCCACGGAGTCACCTAGTGCAG", "binding signal": "8170 fluorescence intensity (a.u.)"}, {"sequence": "CCTGCTGCTCCCGCGCAATCCTCTCTCGCTGCCGGTGGGGCGGAGTCACCTAGTGCAG", "binding signal": "10500 fluorescence intensity (a.u.)"}, {"sequence": "TTCTTCTCGTAAGTTAAGATATGCCGCTTCTTTGCGTTCACGGAGTCACCTAGTGCAG", "binding signal": "8500 fluorescence intensity (a.u.)"}, {"sequence": "TGGTTTTCATTTGACATGACGTCTACGTGACGCCTACTTGCGGAGTCACCTAGTGCAG", "binding signal": "8450 fluorescence intensity (a.u.)"}, {"sequence": "CCTTTGTGTCGTTTCTCTTAATTTATTTCGTGTAAACCTTCGGAGTCACCTAGTGCAG", "binding signal": "10900 fluorescence intensity (a.u.)"}, {"sequence": "GCCGCGCCGCCTCGCCCGACGTCGTAGCAACCAAGCCACCCGGAGTCACCTAGTGCAG", "binding signal": "8680 fluorescence intensity (a.u.)"}, {"sequence": "AATACATCAATGTATTTTATGTTTTCCTCTGCATATACATCGGAGTCACCTAGTGCAG", "binding signal": "8380 fluorescence intensity (a.u.)"}, {"sequence": "CGTCCTCGTTGTTCTCTCGCTCGCTCGCATGCTCCTCGCGCGGAGTCACCTAGTGCAG", "binding signal": "8750 fluorescence intensity (a.u.)"}, {"sequence": "CAGCAAGAAGCTCCATTAATCCATTCCATATACTCATATACGGAGTCACCTAGTGCAG", "binding signal": "8570 fluorescence intensity (a.u.)"}, {"sequence": "GATCCCGGGCCCGGCCCACTGGCCCAGTCAACTAATCCTCCGGAGTCACCTAGTGCAG", "binding signal": "8080 fluorescence intensity (a.u.)"}, {"sequence": "CGTGTGTGGCCTCCTCCTCCGTTCCGTTTCGCAGTCGTCGCGGAGTCACCTAGTGCAG", "binding signal": "8930 fluorescence intensity (a.u.)"}, {"sequence": "TCTCCGTCGACCGTGCCGCCCGTGCCACTCGATTTGTTGACGGAGTCACCTAGTGCAG", "binding signal": "9460 fluorescence intensity (a.u.)"}, {"sequence": "CTGATGCCCATATACTTACATGTTAACTAATGCATAGACACGGAGTCACCTAGTGCAG", "binding signal": "9070 fluorescence intensity (a.u.)"}]}]}
